Patent US20160159879A1 (UNIVERSITY OF NORTH CAROLINA AT CHAPEL HILL, published 2016)
No constants are given. Whether binding was seen depends on the method and setting. In cells and extracts the contact can be indirect. Some entries that bind do so weakly or less than the wild type. Where a sequence is shown, tags or fusion partners need not be part of it.

Experiments:
[1] = target: T1, Human βENaC subunit, HA (N-terminus) and V5 (C-terminus) tagged, expressed in HEK293T cells (human) (UniProt P51168); assay: peptide pull-down with S18 or ADG, Western blot, n=3
T1 sequence (glycosylated (EndoH and tunicamycin experiments, p-0362), looked up): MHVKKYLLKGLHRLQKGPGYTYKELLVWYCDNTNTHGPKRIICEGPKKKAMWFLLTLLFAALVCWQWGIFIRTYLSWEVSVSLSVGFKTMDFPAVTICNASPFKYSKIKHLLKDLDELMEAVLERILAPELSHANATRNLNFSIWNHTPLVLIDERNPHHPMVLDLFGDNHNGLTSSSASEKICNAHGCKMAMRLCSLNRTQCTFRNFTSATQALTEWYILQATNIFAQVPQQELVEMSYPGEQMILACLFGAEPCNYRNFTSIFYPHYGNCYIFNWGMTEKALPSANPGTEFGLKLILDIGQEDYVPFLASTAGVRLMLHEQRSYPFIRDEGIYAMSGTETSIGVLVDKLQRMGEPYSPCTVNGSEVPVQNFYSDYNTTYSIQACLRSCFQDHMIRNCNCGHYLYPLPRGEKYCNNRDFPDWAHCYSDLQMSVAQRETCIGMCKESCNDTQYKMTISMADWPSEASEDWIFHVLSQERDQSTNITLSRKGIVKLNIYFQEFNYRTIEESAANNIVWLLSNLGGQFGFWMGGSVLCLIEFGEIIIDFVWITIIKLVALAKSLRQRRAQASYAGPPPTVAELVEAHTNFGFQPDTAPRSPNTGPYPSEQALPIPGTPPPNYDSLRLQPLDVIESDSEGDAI

[2] = target: T1, Human βENaC subunit, HA (N-terminus) and V5 (C-terminus) tagged, expressed in HEK293T cells (human); assay: peptide pull-down with EndoH or tunicamycin, Western blot
[3] = target: T1, Human βENaC subunit, HA (N-terminus) and V5 (C-terminus) tagged, expressed in HEK293T cells (human); assay: pull-down with biotinylated S18 of subunits expressed individually, Western blot
[4] = target: T1, Human βENaC subunit, HA (N-terminus) and V5 (C-terminus) tagged, expressed in HEK293T cells (human); assay: peptide pull-down, Western blot
[5] = target: T1, Human βENaC subunit, HA (N-terminus) and V5 (C-terminus) tagged, expressed in HEK293T cells (human); assay: biotinylated-S18 pull-down of ENaC subunits individually expressed in HEK cells
[6] = target: T1, Human βENaC subunit, HA (N-terminus) and V5 (C-terminus) tagged, expressed in HEK293T cells (human); assay: peptide pull-down with EndoH treatment of the elution or tunicamycin-treated cells, Western blot

- binding [1]: binds
- binding [2]: binds
- binding [3]: binds
- binding [4]: binds
- binding [5]: binds
- binding [6]: binds
Binder: GGLPVPLDQTLPLNVNPA (biotinylated N-terminus) [Biotinylated S18 peptide]
